Measurements: patent EP2769738B1 (Invivogen, priority 2013, dated 2014)

Assays:
plasmid DNA (pDNA) [1] = assay: Gel shift (mobility shift) assay of pDNA complexes; format: binding; conditions: pDNA:molecule ratio 3:24 (w:w), pBsr2pCpGLacZh plasmid, 0.8% agarose gel, compared to pDNA alone
plasmid DNA (pDNA) [2] = assay: Gel shift (mobility shift) assay of pDNA complexes; format: binding; conditions: pDNA:molecule ratio 3:24 (w:w), pBsr2pCpGLacZh plasmid, 0.8% agarose gel, compared to pDNA alone; remark: listed apart in the source

Row | Structure (SMILES) | complexation of pDNA (retardation of pDNA migration in the gel) (plasmid DNA (pDNA) [1]) | complexation of pDNA (retardation of pDNA migration in the gel) (plasmid DNA (pDNA) [2])
1 | CCCCCCCCCCCCCCCC(=O)N[C@@H](CSCC(COC(=O)CCCCCCCCCCCCCCC)OC(=O)CCCCCCCCCCCCCCC)C(=O)N[C@@H](CO)C(=O)N[C@@H](CCCCN)C(=O)N[C@@H](CCCCN)C(=O)N[C@@H](CCCCNC(=O)c1ccc(Cn2c(O)nc3c(N)nc(NCCCC)nc32)cc1)C(=O)N[C@@H](CCCCN)C(=O)O (stereo partly drawn) [CL535, (2S,5S,8S,11S,14S,17R)-5-(4-(4-((6-amino-2-(butylamino)-8-hydroxy-9H-purin-9-yl)methyl)benzamido)butyl)-2,8,11-tris(4-aminobutyl)-14-(hydroxymethyl)-4,7,10, 13,16,24-hexaoxo-17-palmitamido-21-(palmitoyloxy)-23-oxa-19-thia-3,6,9,12,15-pentaazanonatriacontan-1-oic acid] | inability to migrate through an agarose gel | 
2 | CCCCCCCCCCCCCCCC(=O)OCC(CSC[C@H](N)C(=O)N[C@@H](CCC(=O)NCCCNCCCCNCCCN)C(=O)Nc1ccc(Cn2c(O)nc3c(N)nc(NCCCC)nc32)cc1)OC(=O)CCCCCCCCCCCCCCC (stereo partly drawn) [CL527, (6R,9S)-6,25-diamino-9-(4-((6-amino-2-(butylamino)-8-hydroxy-9H-purin-9-yl)methyl)phenylcarbamoyl)-7,12-dioxo-4-thia-8,13,17,22-tetraazapentacosane-1,2-diyl dipalmitate] |  | inability to migrate through an agarose gel
3 | CCCCCCCCCCCCCCCC(=O)OCC(CSC[C@H](N)C(=O)NCCCC[C@H](NC(=O)CNC(=O)c1ccc(Cn2c(O)nc3c(N)nc(NCCCC)nc32)cc1)C(=O)NCCCNCCCCNCCCN)OC(=O)CCCCCCCCCCCCCCC (stereo partly drawn) [CL487, (6R,13S)-6,27-diamino-13-(2-(4-((6-amino-2-(butylamino)-8-hydroxy-9H-purin-9-yl)methyl)benzamido)acetamido)-7,14-dioxo-4-thia-8,15,19,24-tetraazaheptacosane-1,2-diyl dipalmitate] |  | inability to migrate through an agarose gel
4 | CCCCCCCCCCCCCCCC(=O)OCC(CSC[C@H](N)C(=O)NCCCNCCCCNCCCNC(=O)CNC(=O)c1ccc(Cn2c(O)nc3c(N)nc(NCCCC)nc32)cc1)OC(=O)CCCCCCCCCCCCCCC (stereo partly drawn) [CL553, (20R)-20-amino-1-(4-((6-amino-2-(butylamino)-8-hydroxy-9H-purin-9-yl)methyl)phenyl)-1,4,19-trioxo-22-thia-2,5,9,14,18-pentaazapentacosane-24,25-diyl dipalmitate] |  | inability to migrate through an agarose gel
5 | CCCCCCCCCCCCCCCC(=O)N[C@@H](CSCC(COC(=O)CCCCCCCCCCCCCCC)OC(=O)CCCCCCCCCCCCCCC)C(=O)N[C@@H](CO)C(=O)N[C@@H](CCCCN)C(=O)N[C@@H](CCCCN)C(=O)N[C@@H](CCCCN)C(=O)N[C@@H](CCCCN)C(=O)Nc1ccc(Cn2c(O)nc3c(N)nc(NCCCC)nc32)cc1 (stereo partly drawn) [CL534, ((6R,9S,12S,15S,18S,21S)-25-amino-21-(4-((6-amino-2-(butylamino)-8-hydroxy-9H-purin-9-yl)methyl)phenylcarbamoyl)-12,15,18-tris(4-aminobutyl)-9-(hydroxylmethyl)-7,10,13,16,19-pentaoxo-6-palmitamido-4-thia-8,11,14,17,20-pentaazapentacosane-1,2-diyl dipalmitate] | inability to migrate through an agarose gel | 
6 | CCCCCCCCCCCCCCCC(=O)OCC(CSC[C@H](N)C(=O)NCCCC[C@H](NC(=O)c1ccc(Cn2c(O)nc3c(N)nc(NCCCC)nc32)cc1)C(=O)NCCCNCCCCNCCCN)OC(=O)CCCCCCCCCCCCCCC (stereo partly drawn) [CL486, (6R,13S)-6,27-diamino-13-(4-((6-amino-2-(butylamino)-8-hydroxy-9H-purin-9-yl)methyl)benzamido)-7,14-dioxo-4-thia-8,15,19,24-tetraazaheptacosane-1,2-diyl dipalmitate] |  | inability to migrate through an agarose gel
7 | CCCCCCCCCCCCCCCC(=O)OCC(CSC[C@H](N)C(=O)N[C@@H](CO)C(=O)N[C@@H](CCCCNC(=O)c1ccc(Cn2c(O)nc3c(N)nc(NCCCC)nc32)cc1)C(=O)N[C@@H](CCCCN)C(=O)N[C@@H](CCCCN)C(=O)N[C@@H](CCCCN)C(=O)O)OC(=O)CCCCCCCCCCCCCCC (stereo partly drawn) [CL533, (2S,5S,8S,11S,14S,17R)-17-amino-11-(4-(4-((6-amino-2-(butylamino)-8-hydroxy-9H-purin-9-yl)methyl)benzamido)butyl)-2,5,8-tris(4-aminobutyl)-14-(hydroxylmethyl)-4,7,10,13,16,24-hexaoxo-21-(palmitoyloxy)-23-oxa-19-thia-3,6,9,12,15-pentaazanonatria contan-1-oic acid] | inability to migrate through an agarose gel | 
8 | CCCCCCCCCCCCCCCC(=O)OCC(CSC[C@H](N)C(=O)N[C@@H](CCCCNC(=O)CNC(=O)c1ccc(Cn2c(O)nc3c(N)nc(NCCCC)nc32)cc1)C(=O)NCCCNCCCCNCCCN)OC(=O)CCCCCCCCCCCCCCC (stereo partly drawn) [CL475, (6R,9S)-6,23-diamino-9-(4-(2-(4-((6-amino-2-(butylamino)-8-hydroxy-9H-purin-9-yl)methyl)benzamido)acetamido)butyl)-7,10-dioxo-4-thia-8,11,15,20-tetraazatrico sane-1,2-diyl dipalmitate] |  | inability to migrate through an agarose gel
9 | CCCCCCCCCCCCCCCC(=O)N[C@@H](CSCC(COC(=O)CCCCCCCCCCCCCCC)OC(=O)CCCCCCCCCCCCCCC)C(=O)N[C@@H](CO)C(=O)N[C@@H](CCCCN)C(=O)N[C@@H](CCCCNC(=O)c1ccc(Cn2c(O)nc3c(N)nc(NCCCC)nc32)cc1)C(=O)N[C@@H](CCCCN)C(=O)N[C@@H](CCCCN)C(=O)O (stereo partly drawn) [CL536, (2S,5S,8S,11S,14S,17R)-8-(4-(4-((6-amino-2-(butylamino)-8-hydroxy-9H-purin-9-yl)methyl)benzamido)butyl)-2,5,11-tris(4-aminobutyl)-14-(hydroxymethyl)-4,7,10, 13,16,24-hexaoxo-17-palmitamido-21-(palmitoyloxy)-23-oxa-19-thia-3,6,9,12,15-pentaazanonatriacontan-1-oic acid] | inability to migrate through an agarose gel | 
10 | CCCCCCCCCCCCCCCC(=O)OCC(CSC[C@H](N)C(=O)N[C@@H](COC(=O)c1ccc(Cn2c(O)nc3c(N)nc(NCCCC)nc32)cc1)C(=O)NCCCNCCCCNCCCN)OC(=O)CCCCCCCCCCCCCCC (stereo partly drawn) [CL514, (6R,9S)-6,23-diamino-9-((4-((6-amino-2-(butylamino)-8-hydroxy-9H-purin-9-yl)methyl)benzoyloxy)methyl)-7,10-dioxo-4-thia-8,11,15,20-tetraazatricosane-1,2-diyl dipalmitate] |  | inability to migrate through an agarose gel
11 | CCCCCCCCCCCCCCCC(=O)OCC(CSC[C@H](N)C(=O)N[C@@H](CO)C(=O)N[C@@H](CCCCN)C(=O)N[C@@H](CCCCN)C(=O)N[C@@H](CCCCNC(=O)c1ccc(Cn2c(O)nc3c(N)nc(NCCCC)nc32)cc1)C(=O)N[C@@H](CCCCN)C(=O)O)OC(=O)CCCCCCCCCCCCCCC (stereo partly drawn) [CL530, (2S,5S,8S,11S,14S,17R)-17-amino-5-(4-(4-((6-amino-2-(butylamino)-8-hydroxy-9H-purin-9-yl)methyl)benzamido)butyl)-2,8,11-tris(4-aminobutyl)-14-(hydroxymethyl) -4,7,10,13,16,24-hexaoxo-21-(palmitoyloxy)-23-oxa-19-thia-3,6,9,12,15-pentaaza nonatriacontan-1-oic acid] | inability to migrate through an agarose gel | 
12 | CCCCCCCCCCCCCCCC(=O)OCC(CSC[C@H](N)C(=O)N[C@@H](CO)C(=O)N[C@@H](CCCCN)C(=O)N[C@@H](CCCCNC(=O)c1ccc(Cn2c(O)nc3c(N)nc(NCCCC)nc32)cc1)C(=O)N[C@@H](CCCCN)C(=O)N[C@@H](CCCCN)C(=O)O)OC(=O)CCCCCCCCCCCCCCC (stereo partly drawn) [CL531, (2S,5S,8S,11S,14S,17R)-17-amino-8-(4-(4-((6-amino-2-(butylamino)-8-hydroxy-9H-purin-9-yl)methyl)benzamido)butyl)-2,5,11-tris(4-aminobutyl)-14-(hydroxymethyl) -4,7,10,13,16,24-hexaoxo-21-(palmitoyloxy)-23-oxa-19-thia-3,6,9,12,15-pentaaza nonatriacontan-1-oic acid] | inability to migrate through an agarose gel | 
13 | CCCCCCCCCCCCCCCC(=O)N[C@@H](CSCC(COC(=O)CCCCCCCCCCCCCCC)OC(=O)CCCCCCCCCCCCCCC)C(=O)N[C@@H](CO)C(=O)N[C@@H](CCCCNC(=O)c1ccc(Cn2c(O)nc3c(N)nc(NCCCC)nc32)cc1)C(=O)N[C@@H](CCCCN)C(=O)N[C@@H](CCCCN)C(=O)N[C@@H](CCCCN)C(=O)O (stereo partly drawn) [CL537, (2S,5S,8S,11S,14S,17R)-11-(4-(4-((6-amino-2-(butylamino)-8-hydroxy-9H-purin-9-yl)methyl)benzamido)butyl)-2,5,8-tris(4-aminobutyl)-14-(hydroxymethyl)-4,7,10, 13,16,24-hexaoxo-17-palmitamido-21-(palmitoyloxy)-23-oxa-19-thia-3,6,9,12,15-pentaazanonatria contan-1-oic acid] | inability to migrate through an agarose gel | 
14 | CCCCCCCCCCCCCCCC(=O)OCC(CSC[C@@H](N)C(=O)N[C@@H](CO)C(=O)N[C@@H](CCCCN)C(=O)N[C@@H](CCCCN)C(=O)N[C@@H](CCCCN)C(=O)N[C@H](CCCCN)C(=O)Nc1ccc(Cn2c(O)nc3c(N)nc(NCCCC)nc32)cc1)OC(=O)CCCCCCCCCCCCCCC (stereo in doubt) [CL413, (6S,9S,12S,15S,18S,21R)-6,25-diamino-21-(4-((6-amino-2-(butylamino)-8-hydroxy-9H-purin-9-yl)methyl)phenylcarbamoyl)-12,15,18-tris(4-aminobutyl)-9-(hydroxylmethyl)-7,10, 13,16,19-pentaoxo-4-thia-8,11,14,17,20-pentaazapentacosane-1,2-diyl dipalmitate] | inability to migrate through an agarose gel | 

Some compounds share one wording; it may come from a single statement.
